Source: the supplement of paper PMC10849652
Some of the results follow.

The chains behind the UniProt entries cited, without tags or fusion partners. Where a name states a change or a piece, a line headed by the entry shows the natural chain unless it says otherwise.
UniProt Q99715: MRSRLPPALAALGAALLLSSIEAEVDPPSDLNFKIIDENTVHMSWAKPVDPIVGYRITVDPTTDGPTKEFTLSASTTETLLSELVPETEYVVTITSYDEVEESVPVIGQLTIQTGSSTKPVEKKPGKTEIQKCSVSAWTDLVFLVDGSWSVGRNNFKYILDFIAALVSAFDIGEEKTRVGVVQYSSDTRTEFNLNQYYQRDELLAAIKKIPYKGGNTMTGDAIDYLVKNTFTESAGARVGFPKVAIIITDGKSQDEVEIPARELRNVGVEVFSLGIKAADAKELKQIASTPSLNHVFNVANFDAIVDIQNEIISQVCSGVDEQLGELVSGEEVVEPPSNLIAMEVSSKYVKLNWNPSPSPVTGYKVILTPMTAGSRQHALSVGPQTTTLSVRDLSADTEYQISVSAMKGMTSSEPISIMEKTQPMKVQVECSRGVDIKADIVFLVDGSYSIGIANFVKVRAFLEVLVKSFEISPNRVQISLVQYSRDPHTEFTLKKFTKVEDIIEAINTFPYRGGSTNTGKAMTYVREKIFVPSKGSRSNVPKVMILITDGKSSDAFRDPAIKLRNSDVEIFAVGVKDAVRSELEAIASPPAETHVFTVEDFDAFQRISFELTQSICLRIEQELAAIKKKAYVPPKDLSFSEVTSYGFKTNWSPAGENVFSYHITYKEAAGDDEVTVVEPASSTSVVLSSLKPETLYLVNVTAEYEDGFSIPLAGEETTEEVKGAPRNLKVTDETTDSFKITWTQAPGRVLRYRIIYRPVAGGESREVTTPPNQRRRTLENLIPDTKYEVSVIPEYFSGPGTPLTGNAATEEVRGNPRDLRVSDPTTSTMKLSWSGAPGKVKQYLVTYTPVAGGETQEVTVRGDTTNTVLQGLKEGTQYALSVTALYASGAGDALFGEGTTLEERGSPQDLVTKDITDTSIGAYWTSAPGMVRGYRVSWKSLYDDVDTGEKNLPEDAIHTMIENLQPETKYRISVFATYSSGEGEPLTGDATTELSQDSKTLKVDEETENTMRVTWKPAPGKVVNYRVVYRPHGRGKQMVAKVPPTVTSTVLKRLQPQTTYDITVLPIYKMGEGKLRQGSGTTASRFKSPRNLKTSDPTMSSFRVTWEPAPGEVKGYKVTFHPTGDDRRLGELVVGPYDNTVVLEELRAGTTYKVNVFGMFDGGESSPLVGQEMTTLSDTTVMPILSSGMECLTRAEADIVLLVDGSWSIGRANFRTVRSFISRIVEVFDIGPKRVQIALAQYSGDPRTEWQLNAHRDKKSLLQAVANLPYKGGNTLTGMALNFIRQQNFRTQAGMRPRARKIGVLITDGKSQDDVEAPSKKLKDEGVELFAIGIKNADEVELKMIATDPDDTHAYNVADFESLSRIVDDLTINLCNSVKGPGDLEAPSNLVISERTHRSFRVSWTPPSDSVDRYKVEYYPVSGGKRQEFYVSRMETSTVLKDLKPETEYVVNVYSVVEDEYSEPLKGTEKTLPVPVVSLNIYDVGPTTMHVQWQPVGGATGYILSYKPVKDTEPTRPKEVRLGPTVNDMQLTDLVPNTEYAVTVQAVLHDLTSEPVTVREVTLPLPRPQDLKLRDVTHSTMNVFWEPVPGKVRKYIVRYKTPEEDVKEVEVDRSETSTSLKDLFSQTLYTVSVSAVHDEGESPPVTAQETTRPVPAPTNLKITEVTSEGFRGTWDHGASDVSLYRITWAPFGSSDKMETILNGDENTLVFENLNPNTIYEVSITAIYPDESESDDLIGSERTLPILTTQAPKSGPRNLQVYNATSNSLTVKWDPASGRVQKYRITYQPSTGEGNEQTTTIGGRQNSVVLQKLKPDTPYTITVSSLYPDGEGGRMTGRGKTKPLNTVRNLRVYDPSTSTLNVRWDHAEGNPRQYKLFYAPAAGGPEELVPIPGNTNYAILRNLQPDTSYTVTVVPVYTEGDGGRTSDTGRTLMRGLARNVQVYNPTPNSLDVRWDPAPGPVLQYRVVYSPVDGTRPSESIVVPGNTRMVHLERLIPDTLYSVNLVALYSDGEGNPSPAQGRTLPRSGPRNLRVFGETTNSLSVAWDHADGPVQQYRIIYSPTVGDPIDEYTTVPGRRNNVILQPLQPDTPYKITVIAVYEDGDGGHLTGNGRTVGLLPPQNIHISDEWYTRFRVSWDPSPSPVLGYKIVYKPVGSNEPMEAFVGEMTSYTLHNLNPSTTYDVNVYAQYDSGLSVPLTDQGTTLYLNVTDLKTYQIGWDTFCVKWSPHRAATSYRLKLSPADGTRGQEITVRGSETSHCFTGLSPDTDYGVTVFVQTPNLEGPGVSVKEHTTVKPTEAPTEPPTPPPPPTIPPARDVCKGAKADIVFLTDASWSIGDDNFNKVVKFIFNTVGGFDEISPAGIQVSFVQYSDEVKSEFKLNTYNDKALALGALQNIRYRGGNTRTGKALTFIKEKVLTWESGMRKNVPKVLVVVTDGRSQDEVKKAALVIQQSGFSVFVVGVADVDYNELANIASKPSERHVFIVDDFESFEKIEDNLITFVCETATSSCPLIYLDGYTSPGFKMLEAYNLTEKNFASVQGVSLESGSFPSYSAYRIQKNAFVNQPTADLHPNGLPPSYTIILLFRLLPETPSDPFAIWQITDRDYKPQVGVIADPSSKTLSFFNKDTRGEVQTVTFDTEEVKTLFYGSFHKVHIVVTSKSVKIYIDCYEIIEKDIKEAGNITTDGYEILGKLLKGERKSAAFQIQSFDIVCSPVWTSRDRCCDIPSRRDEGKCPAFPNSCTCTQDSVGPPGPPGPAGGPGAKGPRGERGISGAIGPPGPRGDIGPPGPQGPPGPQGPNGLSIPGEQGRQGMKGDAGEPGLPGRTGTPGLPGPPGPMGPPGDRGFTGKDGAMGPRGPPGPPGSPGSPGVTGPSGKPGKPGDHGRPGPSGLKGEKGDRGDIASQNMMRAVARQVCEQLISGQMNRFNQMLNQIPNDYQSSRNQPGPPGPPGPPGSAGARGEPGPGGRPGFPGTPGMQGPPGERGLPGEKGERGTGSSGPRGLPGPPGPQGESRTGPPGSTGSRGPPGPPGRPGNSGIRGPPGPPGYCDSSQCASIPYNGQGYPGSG
UniProt Q6QEF8, whole entry, looked up: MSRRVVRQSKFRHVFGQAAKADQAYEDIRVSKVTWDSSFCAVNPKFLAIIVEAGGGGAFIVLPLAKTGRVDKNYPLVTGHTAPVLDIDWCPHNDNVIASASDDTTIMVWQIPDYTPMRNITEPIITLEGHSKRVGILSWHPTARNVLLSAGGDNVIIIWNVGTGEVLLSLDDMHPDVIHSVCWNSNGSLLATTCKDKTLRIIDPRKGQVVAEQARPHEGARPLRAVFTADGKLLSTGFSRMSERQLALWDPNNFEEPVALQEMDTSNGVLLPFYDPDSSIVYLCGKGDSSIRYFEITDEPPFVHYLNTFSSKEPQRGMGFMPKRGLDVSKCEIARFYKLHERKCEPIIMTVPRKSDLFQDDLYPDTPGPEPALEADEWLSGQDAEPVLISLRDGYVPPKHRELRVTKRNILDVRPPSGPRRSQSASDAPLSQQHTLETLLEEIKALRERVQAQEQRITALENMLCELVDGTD
UniProt P24311, whole entry, looked up: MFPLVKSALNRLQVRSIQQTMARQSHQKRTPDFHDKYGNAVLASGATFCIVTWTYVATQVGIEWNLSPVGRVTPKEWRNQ
UniProt Q96I36: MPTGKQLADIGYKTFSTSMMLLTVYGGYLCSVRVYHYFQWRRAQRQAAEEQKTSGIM
UniProt Q9NRU3: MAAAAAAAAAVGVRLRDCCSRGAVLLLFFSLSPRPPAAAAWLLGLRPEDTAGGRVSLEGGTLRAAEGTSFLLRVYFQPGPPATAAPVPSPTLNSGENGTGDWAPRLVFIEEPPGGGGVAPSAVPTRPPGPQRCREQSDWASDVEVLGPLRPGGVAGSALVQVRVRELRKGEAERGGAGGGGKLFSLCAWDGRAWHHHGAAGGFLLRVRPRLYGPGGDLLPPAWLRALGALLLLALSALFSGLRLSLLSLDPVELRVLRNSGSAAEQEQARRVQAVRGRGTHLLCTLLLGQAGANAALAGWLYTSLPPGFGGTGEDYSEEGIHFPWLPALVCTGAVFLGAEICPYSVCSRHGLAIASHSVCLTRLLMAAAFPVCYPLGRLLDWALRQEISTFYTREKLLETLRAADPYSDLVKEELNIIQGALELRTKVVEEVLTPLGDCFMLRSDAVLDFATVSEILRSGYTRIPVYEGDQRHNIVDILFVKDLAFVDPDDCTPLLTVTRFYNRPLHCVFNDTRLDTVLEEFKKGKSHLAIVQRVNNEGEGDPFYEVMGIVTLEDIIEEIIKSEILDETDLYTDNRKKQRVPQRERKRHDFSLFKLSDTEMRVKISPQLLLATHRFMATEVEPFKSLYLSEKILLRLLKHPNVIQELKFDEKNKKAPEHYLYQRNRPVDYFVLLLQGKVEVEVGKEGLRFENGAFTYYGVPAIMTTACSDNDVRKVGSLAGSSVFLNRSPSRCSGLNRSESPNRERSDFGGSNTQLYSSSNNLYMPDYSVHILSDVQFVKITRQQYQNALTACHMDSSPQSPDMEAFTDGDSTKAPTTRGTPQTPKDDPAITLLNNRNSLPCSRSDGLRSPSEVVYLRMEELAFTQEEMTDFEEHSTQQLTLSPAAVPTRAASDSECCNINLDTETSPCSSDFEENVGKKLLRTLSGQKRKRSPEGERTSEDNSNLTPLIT
UniProt P57737: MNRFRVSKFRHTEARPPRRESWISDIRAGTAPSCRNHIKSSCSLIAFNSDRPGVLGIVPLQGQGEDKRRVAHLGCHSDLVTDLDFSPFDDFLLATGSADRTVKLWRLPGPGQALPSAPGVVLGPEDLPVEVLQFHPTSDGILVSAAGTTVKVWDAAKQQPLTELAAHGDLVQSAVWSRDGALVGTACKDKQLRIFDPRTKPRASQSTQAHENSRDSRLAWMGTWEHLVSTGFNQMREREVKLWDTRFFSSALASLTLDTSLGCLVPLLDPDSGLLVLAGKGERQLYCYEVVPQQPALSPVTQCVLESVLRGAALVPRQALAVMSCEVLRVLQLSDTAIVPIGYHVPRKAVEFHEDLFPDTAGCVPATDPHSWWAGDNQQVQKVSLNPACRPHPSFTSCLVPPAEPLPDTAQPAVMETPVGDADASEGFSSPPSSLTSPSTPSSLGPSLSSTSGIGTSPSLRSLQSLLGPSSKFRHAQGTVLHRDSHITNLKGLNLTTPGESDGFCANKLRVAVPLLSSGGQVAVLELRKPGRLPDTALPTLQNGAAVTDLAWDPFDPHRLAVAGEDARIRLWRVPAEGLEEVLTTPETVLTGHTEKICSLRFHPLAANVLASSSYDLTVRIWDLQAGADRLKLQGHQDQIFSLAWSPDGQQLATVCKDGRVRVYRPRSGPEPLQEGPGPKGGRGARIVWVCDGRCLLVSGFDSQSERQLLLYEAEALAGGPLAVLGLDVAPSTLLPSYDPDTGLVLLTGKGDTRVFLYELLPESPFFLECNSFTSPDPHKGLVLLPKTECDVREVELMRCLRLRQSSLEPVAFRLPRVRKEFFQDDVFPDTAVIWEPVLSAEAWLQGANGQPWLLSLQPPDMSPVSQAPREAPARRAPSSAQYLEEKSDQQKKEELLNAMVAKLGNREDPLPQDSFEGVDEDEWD
UniProt Q9BWP8: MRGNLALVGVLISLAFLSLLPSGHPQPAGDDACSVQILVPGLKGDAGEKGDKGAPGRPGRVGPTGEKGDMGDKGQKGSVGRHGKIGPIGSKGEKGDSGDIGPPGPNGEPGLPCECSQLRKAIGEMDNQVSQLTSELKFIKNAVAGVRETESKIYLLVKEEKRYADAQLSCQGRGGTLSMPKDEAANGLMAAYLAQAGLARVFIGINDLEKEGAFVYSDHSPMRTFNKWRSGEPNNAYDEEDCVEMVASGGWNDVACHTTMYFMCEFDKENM
UniProt O14810: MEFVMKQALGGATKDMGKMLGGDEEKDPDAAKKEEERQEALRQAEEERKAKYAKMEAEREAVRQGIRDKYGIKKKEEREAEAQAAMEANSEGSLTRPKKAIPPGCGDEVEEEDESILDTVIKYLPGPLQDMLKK
UniProt P61201: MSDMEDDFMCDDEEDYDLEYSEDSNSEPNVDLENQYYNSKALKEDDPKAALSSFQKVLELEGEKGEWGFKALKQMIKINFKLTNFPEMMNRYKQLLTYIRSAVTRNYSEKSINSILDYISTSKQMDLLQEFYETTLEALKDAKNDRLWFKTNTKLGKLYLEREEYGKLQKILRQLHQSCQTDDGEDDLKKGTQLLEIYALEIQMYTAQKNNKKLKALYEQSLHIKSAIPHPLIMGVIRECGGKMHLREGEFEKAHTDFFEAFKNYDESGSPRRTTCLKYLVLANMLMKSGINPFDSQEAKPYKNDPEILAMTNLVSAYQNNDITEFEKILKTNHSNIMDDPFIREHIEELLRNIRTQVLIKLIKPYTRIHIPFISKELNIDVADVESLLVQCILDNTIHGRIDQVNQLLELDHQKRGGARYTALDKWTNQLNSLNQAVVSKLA
UniProt Q8WXC6: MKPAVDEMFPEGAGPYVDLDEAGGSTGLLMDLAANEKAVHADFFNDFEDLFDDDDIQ

Tests used:
Assay in all cases: log2 fold change, soluble protein after heating vs DMSO (PISA); higher = thermal stabilisation; K562 lysate, 10 uM; active = over 0.2 and 3.5 SD of the protein, either way, in both replicates (recomputed)
[1] = compound: CCCS(=O)(=O)Nc1ccc(F)c(C(=O)c2c[nH]c3ncc(-c4ccc(Cl)cc4)cc23)c1F [vemurafenib]
Method in brief: (§1)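 K562 pellets were dounce-homogenised in PBS pH 7.4 with 1 mM MgCl2, and the crude extract at 1 mg/mL protein was treated with 10 μM compound for 30 min. Aliquots were heated for 3 min across 48°C-58°C, pooled, and brought to 0.5% NP-40 at 4°C; soluble protein was the supernatant after 21,000xg for 90 min. Soluble protein was quantified by TMTpro 16plex LC-MS/MS with channel sums equalised, and reported as log2 fold change in thermal stability against DMSO controls, with values from duplicates.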

[2] = compound: CCCS(=O)(=O)Nc1ccc(F)c(C(=O)c2c[nH]c3ncc(Cl)cc23)c1F
Method in brief: as §1

[3] = compound: CC[C@@H]1C(=O)N(C)c2cnc(Nc3ccc(C(=O)NC4CCN(C)CC4)cc3OC)nc2N1C1CCCC1
Method in brief: as §1

[4] = compound: CC[C@@H]1C(=O)N(C)c2cnc(Nc3ccc(C(=O)N[C@H]4CC[C@H](N5CCN(CC6CC6)CC5)CC4)cc3OC)nc2N1C(C)C [volasertib]
Method in brief: as §1

[5] = compound: CN1CCN(CCOc2cc(OC3CCOCC3)c3c(Nc4c(Cl)ccc5c4OCO5)ncnc3c2)CC1 [saracatinib]
Method in brief: as §1

[6] = compound: CN1CCN(c2nc(C3=C(c4c[nH]c5ccccc45)C(=O)NC3=O)c3ccccc3n2)CC1 [sotrastaurin]
Method in brief: as §1

[7] = compound: CNC(=O)C1=CC=CC=C1NC2=NC(=NC=C2Cl)NC3=C(C=C(C=C3)N4CCOCC4)OC
Method in brief: as §1

[8] = compound: CNC(=O)c1ccc(Nc2ncc(C(F)(F)F)c(NCc3nccnc3N(C)S(C)(=O)=O)n2)cc1 [defactinib]
Method in brief: as §1

[9] = compound: CNc1nc(-c2ccc3c(N)n[nH]c3c2)cc(N2C[C@@H](C(=O)NC3CCCCC3)CC[C@H]2C)n1
Method in brief: as §1

[10] = compound: COC(=O)N[C@@H](C)CNc1nccc(-c2cn(C(C)C)nc2-c2cc(Cl)cc(NS(C)(=O)=O)c2F)n1 [encorafenib]
Method in brief: as §1

[11] = compound: COC(=O)[C@H](CCSC)NC(=O)C1=C(C=C(C=C1)NC[C@H](CS)N)C2=CC=CC=C2
Method in brief: as §1

[12] = compound: COc1cc2nc(-c3cc(F)ccc3O)nc(N[C@@H]3CNC[C@H]3C(C)(C)O)c2cc1OC
Method in brief: as §1

[13] = compound: CCN(CCCOc1ccc2c(Nc3cc(CC(=O)Nc4cccc(F)c4)[nH]n3)ncnc2c1)CCOP(=O)(O)O [barasertib]
Method in brief: as §1

[14] = compound: CCn1c(C(=O)N(C2CC2)C2CC2)cc2c3c(ncn3C)c(Nc3cc(C)n(C)n3)nc21
Method in brief: as §1

[15] = compound: CCn1cc(-c2ccnc3[nH]c(-c4cccc(CN(C)C)c4)cc23)c(-c2ccc(NC(=O)N(C)C)cc2)n1
Method in brief: as §1

[16] = compound: CN1CCC(CNc2ccc3ncc(-c4cccc(OC(F)(F)F)c4)n3n2)CC1
Method in brief: as §1

[17] = compound: CN1CC[C@H](c2c(O)cc(O)c3c(=O)cc(-c4ccccc4Cl)oc23)[C@H](O)C1 [alvocidib]
Method in brief: as §1

[18] = compound: CN1CCc2c(c3ccccc3n2Cc2ccc(C(=O)NO)cc2)C1 [Tubastatin A]
Method in brief: as §1

[19] = compound: COc1cc(Nc2ncc3c(n2)-c2ccc(Cl)cc2C(c2c(F)cccc2OC)=NC3)ccc1C(=O)O [alisertib]
Method in brief: as §1

[20] = compound: COc1cc2ncnc(Nc3ccc(F)c(Cl)c3)c2cc1OCCCN1CCOCC1 [gefitinib]
Method in brief: as §1

| Target | log2 fold change [1] | log2 fold change [2] | log2 fold change [3] | log2 fold change [4] | log2 fold change [5] | log2 fold change [6] | log2 fold change [7] | log2 fold change [8] | log2 fold change [9] | log2 fold change [10] | log2 fold change [11] | log2 fold change [12] | log2 fold change [13] | log2 fold change [14] | log2 fold change [15] | log2 fold change [16] | log2 fold change [17] | log2 fold change [18] | log2 fold change [19] | log2 fold change [20] |
| --- | --- | --- | --- | --- | --- | --- | --- | --- | --- | --- | --- | --- | --- | --- | --- | --- | --- | --- | --- | --- |
| COL12A1 (UniProt Q99715) | inactive: 0.239 | inactive: 0.178 | inactive: 0.194 | inactive: -0.139 | inactive: 0.063 | inactive: -0.233 | inactive: 0.095 | inactive: -0.059 | inactive: 0.531 | inactive: 0.003 | inactive: -0.092 | active: 1.32 |  |  |  |  |  |  |  |  |
| CPNE8 (UniProt Q86YQ8) | inactive: -0.429 | inactive: -0.3 |  | inactive: 0.042 | inactive: -0.09 | inactive: 0.082 | inactive: 0.004 | inactive: -0.09 | inactive: -0.036 |  |  | inactive: 0.211 | inactive: -0.359 | inactive: 0 | inactive: -0.033 | inactive: 0.126 | inactive: 0.014 | inactive: 0.095 | inactive: 0.097 | inactive: -0.005 |
| CORO6 isoform 5 (UniProt Q6QEF8) |  | inactive: 0.045 |  | inactive: 0.019 |  | inactive: -0.002 |  |  |  |  |  | inactive: 0.045 | inactive: -0.008 |  | inactive: 0.252 | inactive: -0.067 | inactive: 0.083 |  | inactive: 0.039 | inactive: -0.081 |
| COX7B (UniProt P24311) | inactive: 0.014 | inactive: -0.047 | inactive: -0.01 | inactive: 0.004 | inactive: -0.062 | inactive: -0.028 | inactive: 0.112 | inactive: 0.042 | inactive: -0.014 | inactive: -0.022 | active: 0.315 | inactive: 0.018 |  | inactive: -0.051 | inactive: 0.047 | inactive: -0.013 | inactive: 0.013 | inactive: 0.02 | inactive: 0.028 | inactive: -0.139 |
| COX14 (UniProt Q96I36) |  | inactive: -0.005 |  | inactive: 0.075 |  | inactive: 0.014 | inactive: 0.031 |  |  |  |  | inactive: 0.001 |  |  |  |  |  |  | inactive: 0.036 | inactive: -0.074 |
| CNNM1 (UniProt Q9NRU3) | inactive: 0.038 |  | inactive: 0.041 |  | inactive: -0.016 |  | inactive: 0.025 | inactive: 0.031 | inactive: 0.131 | inactive: -0.019 | inactive: 0.042 |  |  |  |  |  |  |  | inactive: -0.015 | inactive: -0.005 |
| COQ8B (UniProt Q96D53) |  |  | inactive: -0.03 |  |  | inactive: -0.029 | inactive: -0.04 |  |  | inactive: -0.162 | inactive: 0.436 |  |  |  | inactive: 0.013 | inactive: -0.161 | inactive: -0.293 |  | inactive: 0.362 | inactive: -0.119 |
| COL6A1 (UniProt P12109) |  |  |  |  |  |  |  |  |  |  |  |  |  |  | inactive: 0.108 | inactive: 0.107 | inactive: 0.024 |  | inactive: 0.114 | inactive: -0.074 |
| COMMD3-BMI1 (UniProt R4GMX3) |  | inactive: 0.203 | inactive: 0.059 | inactive: -0.004 | inactive: 0.016 | inactive: 0.012 | inactive: 0.031 |  | inactive: 0.089 | inactive: 0.153 | inactive: -0.247 | inactive: -0.03 | inactive: -0.088 | inactive: -0.024 |  |  |  | inactive: -0.217 | inactive: -0.025 | inactive: -0.103 |
| COP1 (UniProt Q8NHY2) |  | inactive: -0.027 |  | inactive: 0.012 | inactive: -0.071 | inactive: 0.019 | inactive: -0.058 |  | inactive: -0.057 |  |  | inactive: 0.014 |  | inactive: 0.022 | inactive: -0.269 | inactive: 0.032 | inactive: -0.03 | inactive: 0.042 | inactive: -0.012 | inactive: 0 |
| CORO7 (UniProt P57737) | inactive: -0.143 |  | inactive: 0.089 |  | inactive: 0.166 | inactive: 0.137 | inactive: -0.092 | inactive: 0.191 | inactive: -0.05 | inactive: -0.081 | inactive: 0.061 |  |  | inactive: -0.025 | inactive: 0.321 | inactive: 0.165 | inactive: 0.001 | inactive: 0.011 | inactive: 0.259 | inactive: -0.062 |
| COL25A1 (UniProt Q9BXS0) |  | inactive: 0.207 |  | inactive: 0.228 |  |  |  |  |  |  |  | inactive: -0.121 | inactive: 0.08 | inactive: 0 |  |  |  | inactive: 0.018 | inactive: -0.07 | inactive: 0.074 |
| COL14A1 (UniProt Q05707) | inactive: -0.027 | inactive: -0.122 |  | inactive: -0.049 | inactive: -0.003 | inactive: 0.082 | inactive: -0.001 | inactive: 0.021 | inactive: 0.031 |  |  | inactive: -0.02 | inactive: 0.193 | inactive: -0.207 | inactive: 0.157 | inactive: -0.099 | inactive: -0.049 | inactive: 0.14 | inactive: -0.095 | inactive: -0.028 |
| COLEC11 isoform 10 (UniProt Q9BWP8) | inactive: -0.054 |  | inactive: -0.085 |  | inactive: 0.051 |  | inactive: 0.002 | inactive: 0.1 | inactive: -0.088 | inactive: 0.131 | inactive: -0.086 |  | inactive: -0.061 | inactive: 0.055 | inactive: -0.023 | inactive: -0.025 | inactive: 0.047 | inactive: -0.023 |  |  |
| CPLX1 (UniProt O14810) | inactive: 0.034 | inactive: 0.057 | inactive: -0.026 | inactive: 0.029 | active: 0.893 |  |  | inactive: 0.144 | inactive: -0.127 | inactive: -0.017 | inactive: -0.415 | inactive: -0.005 |  | inactive: -0.074 |  |  |  | inactive: 0.04 |  |  |
| COPS2 (UniProt P61201) |  | inactive: 0.113 | inactive: 0.185 | inactive: 0.021 | inactive: -0.043 | inactive: 0.009 |  |  | inactive: 0.088 | inactive: 0.002 | inactive: -0.016 | inactive: -0.04 |  |  | inactive: 0.015 | inactive: -0.028 | inactive: -0.017 |  | inactive: 0.027 | inactive: 0.219 |
| CNOT2 (UniProt F8VRS8) |  |  |  |  |  |  | inactive: 0.004 |  |  |  |  |  |  |  |  |  |  |  |  |  |
| CNTRL (UniProt Q7Z7A1) | inactive: 0.01 |  | inactive: 0.03 |  | inactive: 0.063 | inactive: -0.006 | inactive: 0.015 | inactive: 0.014 | inactive: 0.01 | inactive: -0.003 | inactive: 0.065 |  | inactive: 0.011 | inactive: -0.014 | inactive: -0.062 | inactive: 0.121 | inactive: -0.086 | inactive: -0.024 | inactive: -0.028 | inactive: 0.078 |
| COPS9 (UniProt Q8WXC6) |  | inactive: -0.075 |  | inactive: 0.062 |  |  | inactive: 0.087 |  |  |  |  | inactive: 0.163 |  | inactive: -0.197 |  |  |  | inactive: -0.272 |  |  |

Some values from the results shown:
log2 fold change [3], CPLX1 (UniProt O14810) is entered as inactive: -0.026
log2 fold change [3], COQ8B (UniProt Q96D53) is entered as inactive: -0.03
